Experimental data published in patent US20100068187A1, “TRANSCRIPTION FACTORS FOR DIFFERENTIATION OF ADULT HUMAN OLFACTORY PROGENITOR CELLS” (priority 2006, published 2010).
For at least one compound, name, drawing or mass did not settle the structure.

System: NSFCs
Assay: Lineage priming of NSFCs with retinoic acid, forskolin and sonic hedgehog (neurite analysis, immunocytochemistry)
Format: cell-based, human
Conditions: for lineage priming of NSFCs (motoneuronal and dopaminergic lineage primed cells): 0.5 μM RA, 5 μM FN or 15 nM Shh alone; for formation of motoneuronal and dopaminergic lineage primed cells: NSFC cultures, seven days; for formation of oligodendrocytic lineage primed cells: NSFCs incubated with agent, no transfection

| SMILES | lineage priming of NSFCs (motoneuronal and dopaminergic lineage primed cells) | formation of motoneuronal and dopaminergic lineage primed cells | formation of oligodendrocytic lineage primed cells |
| --- | --- | --- | --- |
| C=C[C@@]1(C)CC(=O)[C@]2(O)[C@@]3(C)[C@@H](O)CCC(C)(C)[C@@H]3[C@H](O)[C@H](OC(C)=O)[C@@]2(C)O1 [FN, forskolin] | does not result | do not form | not observed |
| CC1=C(/C=C/C(C)=C/C=C/C(C)=C/C(=O)O)C(C)(C)CCC1 [RA, retinoic acid] | does not result | do not form | not observed |
